Results from patent publication US20240342320A1, “POLYPEPTIDE TARGETING INTEGRIN ALPHA 6 AND USE THEREOF” (GUANGZHOU GENBIONOVA MEDICAL TECHNOLOGY CO., LTD., priority 2021, published 2024).
No constants are given. Whether binding was seen depends on the method and setting. Some results given as binding are weak or reduced against the parent protein; the word gives no strength.

Assays:
[1] = molecular target: T1, Integrin α6 on human tumor cells with high integrin α6 expression (human) (UniProt P23229); experiment: flow cytometry of FITC peptide on HCCLM3, Huh-7, S18 and MDA-MB-231 cells
T1 sequence (looked up): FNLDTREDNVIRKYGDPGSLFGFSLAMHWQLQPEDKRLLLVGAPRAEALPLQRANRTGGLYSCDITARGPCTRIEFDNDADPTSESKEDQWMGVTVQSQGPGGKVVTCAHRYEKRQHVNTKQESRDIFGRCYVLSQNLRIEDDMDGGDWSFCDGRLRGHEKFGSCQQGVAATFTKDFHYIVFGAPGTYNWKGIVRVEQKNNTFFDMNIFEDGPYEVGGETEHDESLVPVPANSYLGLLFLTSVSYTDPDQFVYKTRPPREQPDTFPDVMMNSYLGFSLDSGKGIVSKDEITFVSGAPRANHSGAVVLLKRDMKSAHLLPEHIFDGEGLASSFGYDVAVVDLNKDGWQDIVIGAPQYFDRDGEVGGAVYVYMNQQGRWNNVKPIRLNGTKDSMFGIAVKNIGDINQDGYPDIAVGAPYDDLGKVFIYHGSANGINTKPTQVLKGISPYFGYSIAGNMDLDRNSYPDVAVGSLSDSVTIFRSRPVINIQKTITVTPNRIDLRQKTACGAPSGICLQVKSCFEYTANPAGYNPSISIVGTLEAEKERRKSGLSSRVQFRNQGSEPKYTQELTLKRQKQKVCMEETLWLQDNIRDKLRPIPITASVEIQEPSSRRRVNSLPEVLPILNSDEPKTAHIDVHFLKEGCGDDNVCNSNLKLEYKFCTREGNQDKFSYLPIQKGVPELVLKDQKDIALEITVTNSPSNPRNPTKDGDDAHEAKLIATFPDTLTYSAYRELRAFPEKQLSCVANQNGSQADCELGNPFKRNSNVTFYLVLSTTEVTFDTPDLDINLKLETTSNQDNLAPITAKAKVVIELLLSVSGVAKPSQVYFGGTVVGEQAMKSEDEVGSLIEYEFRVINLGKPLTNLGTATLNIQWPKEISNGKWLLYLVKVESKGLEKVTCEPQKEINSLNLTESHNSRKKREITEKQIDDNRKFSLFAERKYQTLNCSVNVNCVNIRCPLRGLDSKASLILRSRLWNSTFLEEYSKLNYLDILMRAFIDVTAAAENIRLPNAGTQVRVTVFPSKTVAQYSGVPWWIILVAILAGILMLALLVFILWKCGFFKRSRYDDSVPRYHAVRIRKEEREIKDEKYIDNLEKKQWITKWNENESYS

[2] = molecular target: T1, Integrin α6 on human tumor cells with high integrin α6 expression (human); experiment: flow cytometry, FITC-labelled peptide on MDA-MB-231 cells (high integrin α6), 37 °C, 2 h
[3] = molecular target: T1, Integrin α6 on human tumor cells with high integrin α6 expression (human); experiment: flow cytometry, FITC-labelled peptide on S18 cells (high integrin α6), 37 °C, 2 h
[4] = molecular target: T1, Integrin α6 on human tumor cells with high integrin α6 expression (human); experiment: flow cytometry, FITC-labelled peptide on HCCLM3 cells (high integrin α6), 37 °C, 2 h
[5] = molecular target: T1, Integrin α6 on human tumor cells with high integrin α6 expression (human); experiment: flow cytometry, FITC-labelled peptide on Huh7 cells (high integrin α6), 37 °C, 2 h

Measured: binding

B1: …-PEG4-K-FITC (peptide)
peptide: CRWYDENAC
modifications: cyclic peptide formed by cysteine C at both ends; C-terminus carries PEG4-K-FITC
binds: all assays above
